In PMC2841635:
These are yes or no findings as the source states them, for the method shown. Binding seen in cells or lysates may run through a third protein. Some entries that bind do so weakly or less than the wild type.

Amino acid sequences for entries named in this document (tags omitted).
UniProt O54967: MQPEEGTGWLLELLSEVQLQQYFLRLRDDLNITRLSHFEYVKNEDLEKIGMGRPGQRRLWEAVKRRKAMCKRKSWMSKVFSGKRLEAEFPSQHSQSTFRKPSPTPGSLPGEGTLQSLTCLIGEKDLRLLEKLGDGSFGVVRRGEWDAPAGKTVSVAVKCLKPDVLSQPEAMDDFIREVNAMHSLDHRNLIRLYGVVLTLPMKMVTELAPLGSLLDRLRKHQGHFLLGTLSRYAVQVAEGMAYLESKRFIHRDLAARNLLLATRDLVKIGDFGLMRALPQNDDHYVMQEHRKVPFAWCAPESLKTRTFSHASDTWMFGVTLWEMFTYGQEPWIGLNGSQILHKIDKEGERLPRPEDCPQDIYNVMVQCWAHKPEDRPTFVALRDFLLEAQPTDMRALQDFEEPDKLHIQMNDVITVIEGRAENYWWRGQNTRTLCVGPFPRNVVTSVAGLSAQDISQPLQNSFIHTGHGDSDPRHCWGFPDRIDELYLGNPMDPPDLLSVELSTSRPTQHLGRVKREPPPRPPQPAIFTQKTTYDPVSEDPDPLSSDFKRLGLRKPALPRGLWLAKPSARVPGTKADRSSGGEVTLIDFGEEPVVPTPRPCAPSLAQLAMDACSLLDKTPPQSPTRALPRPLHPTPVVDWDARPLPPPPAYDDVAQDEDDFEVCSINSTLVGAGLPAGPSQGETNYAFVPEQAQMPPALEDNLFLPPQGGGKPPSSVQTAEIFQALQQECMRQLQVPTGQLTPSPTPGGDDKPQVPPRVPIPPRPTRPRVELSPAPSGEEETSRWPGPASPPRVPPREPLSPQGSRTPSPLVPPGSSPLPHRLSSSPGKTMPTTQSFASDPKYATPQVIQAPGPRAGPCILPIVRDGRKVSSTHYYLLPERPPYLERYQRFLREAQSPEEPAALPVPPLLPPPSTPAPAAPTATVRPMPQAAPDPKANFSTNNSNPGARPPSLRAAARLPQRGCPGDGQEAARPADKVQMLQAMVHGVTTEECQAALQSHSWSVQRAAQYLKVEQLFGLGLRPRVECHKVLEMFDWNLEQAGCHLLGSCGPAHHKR
UniProt Q9WUA6: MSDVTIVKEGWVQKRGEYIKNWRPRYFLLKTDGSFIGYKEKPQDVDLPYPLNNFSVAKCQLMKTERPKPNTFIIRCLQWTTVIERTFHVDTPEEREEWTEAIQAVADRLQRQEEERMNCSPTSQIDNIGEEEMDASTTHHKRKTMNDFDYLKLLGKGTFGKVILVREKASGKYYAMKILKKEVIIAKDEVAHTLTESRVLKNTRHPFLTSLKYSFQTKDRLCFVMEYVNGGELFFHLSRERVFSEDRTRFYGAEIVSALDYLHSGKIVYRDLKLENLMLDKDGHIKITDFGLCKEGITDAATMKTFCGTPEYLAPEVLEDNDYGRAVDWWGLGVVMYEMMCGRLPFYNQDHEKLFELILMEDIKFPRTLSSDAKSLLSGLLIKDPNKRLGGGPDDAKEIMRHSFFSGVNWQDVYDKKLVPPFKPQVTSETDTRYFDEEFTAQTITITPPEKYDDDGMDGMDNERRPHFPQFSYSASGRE
UniProt Q60823: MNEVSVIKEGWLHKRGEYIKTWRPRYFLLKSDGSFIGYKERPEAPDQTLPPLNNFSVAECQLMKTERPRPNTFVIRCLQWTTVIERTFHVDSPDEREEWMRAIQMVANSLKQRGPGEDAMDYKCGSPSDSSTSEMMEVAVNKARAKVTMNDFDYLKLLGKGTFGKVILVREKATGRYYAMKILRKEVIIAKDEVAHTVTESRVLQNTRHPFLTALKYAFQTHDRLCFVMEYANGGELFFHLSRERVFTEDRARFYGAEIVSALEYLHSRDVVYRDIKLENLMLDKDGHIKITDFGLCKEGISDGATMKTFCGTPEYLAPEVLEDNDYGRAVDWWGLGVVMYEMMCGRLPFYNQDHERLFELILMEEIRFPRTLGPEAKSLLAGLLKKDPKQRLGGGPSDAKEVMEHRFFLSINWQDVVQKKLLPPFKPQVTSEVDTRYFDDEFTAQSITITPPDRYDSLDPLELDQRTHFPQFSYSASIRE

Biological target: Ack1, endogenous in mouse embryo fibroblasts (mouse (endogenous in MEFs)) (UniProt O54967)
Assay: co-IP; endogenous proteins in lysates of MEF1KO, MEF2KO and MEF1&2KO cells, serum starved 24 h, EGF 10 ng/ml 10 mins, with or without LY294002 (10 µM, 1 h); IP with Ack1 antibodies, IB with pan-AKT antibodies; 25 mmol/L Tris pH 7.5, 225 mmol/L NaCl, 1% Triton X-100, 10% glycerol

Row | Substance | binding
1 | Akt3, endogenous in MEF1&2KO cells (from UniProt Q9WUA6 1-479) | no binding
2 | Akt2, endogenous in mouse embryo fibroblasts (from UniProt Q60823 1-481) | binds weakly
